In all, about 3,200 compounds were measured (“TSA(with NAD+) / Primary screening (TSA) / delta Tm (K)”: median about -0.04, highest 2% from about 0.37 on). The list shows a part of the results.
Target: NAD-dependent deacetylase Sirtuin 1 (human, UniProt Q96EB6)
Experiment: primary screen, delta tm
Set-up: single well (n = 1, as 'the same TSA')
Details: 10 µM

Sequences of proteins named here, by UniProt entry; tags and fusion partners are left off. Residues count along the entry.
UniProt Q96EB6, 2-747 limits assumed: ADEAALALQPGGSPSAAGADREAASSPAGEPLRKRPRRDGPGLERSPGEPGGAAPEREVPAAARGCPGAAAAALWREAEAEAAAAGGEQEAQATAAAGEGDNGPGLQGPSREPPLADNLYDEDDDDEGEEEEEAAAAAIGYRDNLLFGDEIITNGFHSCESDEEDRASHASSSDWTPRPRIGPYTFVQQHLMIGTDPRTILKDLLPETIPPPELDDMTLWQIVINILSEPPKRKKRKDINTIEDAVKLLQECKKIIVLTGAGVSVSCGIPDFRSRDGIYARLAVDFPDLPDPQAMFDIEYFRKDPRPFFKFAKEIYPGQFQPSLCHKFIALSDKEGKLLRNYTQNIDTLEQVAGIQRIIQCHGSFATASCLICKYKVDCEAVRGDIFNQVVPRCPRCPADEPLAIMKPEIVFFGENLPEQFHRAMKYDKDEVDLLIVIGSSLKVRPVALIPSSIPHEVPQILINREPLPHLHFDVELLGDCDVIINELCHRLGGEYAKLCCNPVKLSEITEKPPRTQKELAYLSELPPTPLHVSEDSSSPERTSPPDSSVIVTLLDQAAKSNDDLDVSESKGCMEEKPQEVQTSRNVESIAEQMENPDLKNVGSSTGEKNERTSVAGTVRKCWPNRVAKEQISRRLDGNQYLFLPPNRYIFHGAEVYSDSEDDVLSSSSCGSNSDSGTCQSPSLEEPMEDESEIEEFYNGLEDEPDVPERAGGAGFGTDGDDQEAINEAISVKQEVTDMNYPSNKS

Row | Structure (SMILES) | TSA(with NAD+) / Primary screening (TSA) / delta Tm (K)
1 | NC(=O)CC1CCN(C(=O)c2ccn(-c3cccc(F)c3)n2)CC1 | -0.16 K
2 | Cc1[nH]c(-c2cccc(Cl)c2)nc1C(=O)Nc1ccc(F)c(C(N)=O)c1 | -0.16 K
3 | COc1cccc(CSC(C)C(N)=O)c1 (stereo not drawn) | -0.03 K
4 | CCCOC(=O)c1ccc(NC(=O)c2cccc(S(=O)(=O)N(C)c3ccc(OC)cc3)c2)cc1 | 0.29 K
5 | Cc1ccc(C)c(NC(=O)Cc2nc(COC(=O)c3ccc(O)cc3O)cs2)c1 | 0.05 K
6 | Cc1nc2ccc(Cl)cc2cc1C(=O)NCC(c1ccccc1)N1CCCC1 (stereo not drawn) | -0.28 K
7 | COc1ccc(C=C2C(=O)NC(=S)NC2=O)cc1 | 0.08 K
8 | NC(=O)c1ccc(S(=O)(=O)N2CCN(CC(O)c3ccccc3)CC2)cc1 (stereo not drawn) | 0.06 K
9 | CCCn1c(NC(=O)c2ccc3c(c2)CCC(=O)N3)nc2ccccc21 | 0.15 K
10 | NC(=O)c1ccc(NC(=O)C(Cc2ccccc2)NC(=O)c2ccccc2)cc1 (stereo not drawn) | -0.19 K
11 | CN(CC(=O)Nc1ccc(Cl)cc1)C(=O)CCn1ccc2ccccc21 | -0.01 K
12 | CC(OC(=O)c1cccc(S(=O)(=O)Nc2ccc(F)cc2)c1)c1nc2ccccc2c(=O)[nH]1 (stereo not drawn) | 0.25 K
13 | Cc1ccc(CSc2nc3ccsc3c(=O)n2C)cc1 | -0.04 K
14 | CC(C)C(NC(=O)c1ccco1)C(=O)NNC(=O)C1CC1 (stereo not drawn) | -0.18 K
15 | CC(NC(=O)COC(=O)c1ccccc1C(=O)N1CCN(c2ccccc2)CC1)C12CC3CC(CC(C3)C1)C2 (stereo not drawn) | -0.06 K
16 | Cc1ccc(OCCN)cc1 | 0.15 K
17 | CCn1c2ccccc2c2cc(NC(=O)C(C)OC(=O)c3cccc(S(=O)(=O)Nc4ccc(Cl)cc4)c3)ccc21 (stereo not drawn) | 0.31 K
18 | CC(C(N)=O)N(C)Cc1ccccc1Cl (stereo not drawn) | 0.25 K
19 | O=C1CCC(C(=O)Nc2cccc(Cn3cnc4ccccc43)c2)N1 (stereo not drawn) | 0.03 K
20 | Sc1nc2ccccc2c2nc(-c3cc4ccccc4o3)nn12 | 0.06 K
21 | N#Cc1ccc(S(=O)(=O)NCc2ccc(S(N)(=O)=O)s2)cc1 | -0.13 K
22 | c1coc(CNc2ncnc3ccsc23)c1 | -0.11 K
23 | CCCN(CC(=O)Nc1ccc(C(N)=O)cc1)CC(=O)Nc1ccccc1C | -0.08 K
24 | O=C(Oc1ccc2oc3ccccc3c2c1)c1ccc([N+](=O)[O-])cc1 | -0.08 K

Some of the entries so far, as tab-separated lines:
Row	Structure (SMILES)	TSA(with NAD+) / Primary screening (TSA) / delta Tm (K)
8	NC(=O)c1ccc(S(=O)(=O)N2CCN(CC(O)c3ccccc3)CC2)cc1 (stereo not drawn)	0.06 K
9	CCCn1c(NC(=O)c2ccc3c(c2)CCC(=O)N3)nc2ccccc21	0.15 K
10	NC(=O)c1ccc(NC(=O)C(Cc2ccccc2)NC(=O)c2ccccc2)cc1 (stereo not drawn)	-0.19 K
11	CN(CC(=O)Nc1ccc(Cl)cc1)C(=O)CCn1ccc2ccccc21	-0.01 K
12	CC(OC(=O)c1cccc(S(=O)(=O)Nc2ccc(F)cc2)c1)c1nc2ccccc2c(=O)[nH]1 (stereo not drawn)	0.25 K
13	Cc1ccc(CSc2nc3ccsc3c(=O)n2C)cc1	-0.04 K
14	CC(C)C(NC(=O)c1ccco1)C(=O)NNC(=O)C1CC1 (stereo not drawn)	-0.18 K
15	CC(NC(=O)COC(=O)c1ccccc1C(=O)N1CCN(c2ccccc2)CC1)C12CC3CC(CC(C3)C1)C2 (stereo not drawn)	-0.06 K
16	Cc1ccc(OCCN)cc1	0.15 K
17	CCn1c2ccccc2c2cc(NC(=O)C(C)OC(=O)c3cccc(S(=O)(=O)Nc4ccc(Cl)cc4)c3)ccc21 (stereo not drawn)	0.31 K
18	CC(C(N)=O)N(C)Cc1ccccc1Cl (stereo not drawn)	0.25 K
19	O=C1CCC(C(=O)Nc2cccc(Cn3cnc4ccccc43)c2)N1 (stereo not drawn)	0.03 K
20	Sc1nc2ccccc2c2nc(-c3cc4ccccc4o3)nn12	0.06 K
21	N#Cc1ccc(S(=O)(=O)NCc2ccc(S(N)(=O)=O)s2)cc1	-0.13 K
22	c1coc(CNc2ncnc3ccsc23)c1	-0.11 K
23	CCCN(CC(=O)Nc1ccc(C(N)=O)cc1)CC(=O)Nc1ccccc1C	-0.08 K
24	O=C(Oc1ccc2oc3ccccc3c2c1)c1ccc([N+](=O)[O-])cc1	-0.08 K

Further results follow.

Row | Structure (SMILES) | TSA(with NAD+) / Primary screening (TSA) / delta Tm (K)
25 | O=S(=O)(c1cccc(Br)c1)N1CCN(c2ncnc3cc(Cl)ccc23)CC1 | -0.03 K
26 | CN(CC(=O)Nc1ccc(Cl)cc1)C(=O)c1ccccc1SCC(=O)NC12CC3CC(CC(C3)C1)C2 | 0.16 K
27 | Cc1ccc(C(=O)C2=C(O)C(=O)N(CCCN3CCOCC3)C2c2ccc([N+](=O)[O-])cc2)cc1 (stereo not drawn) | -0.13 K
28 | CN(Cc1ccccc1)C(=O)NCC1CCN(c2ccncc2)CC1 | 0.03 K
29 | CN(c1ccc(O)cc1)S(=O)(=O)c1ccc2ccccc2c1 | 0.31 K
30 | COc1ccc(CC(=O)NCCNC(=O)c2ccc(C)c(F)c2)cc1 | -0.13 K
31 | COC(=O)c1cc(NC(=O)CN2C(=O)NC(C)(c3ccc4ccccc4c3)C2=O)cc(C(=O)OC)c1 (stereo not drawn) | 0.19 K
32 | Cc1ccc2c(CC(=O)Nc3ccccc3Cc3ccccc3)coc2c1 | 0.06 K
33 | O=C1CCc2cc(NC(=O)c3cccnc3)ccc2N1 | -0.13 K
34 | COc1cccc(CCNC(C(N)=O)c2ccccc2)c1 (stereo not drawn) | 0.06 K
35 | COc1ccc(C)cc1NCCn1c(C)c(C)n2c3c(=O)[nH]c(=O)n(C)c3nc12 | -0.01 K
36 | O=C(c1sc2ccccc2c1Cl)N1CCCN(c2nnc(C(F)(F)F)s2)CC1 | 0.01 K
37 | COC(=O)c1ccc2[nH]c3c(c2c1)CN(S(C)(=O)=O)CC3 | 0.16 K
38 | Nc1ncnc(N2Cc3cccc(Br)c3C2)c1Cl | -0.04 K
39 | Cn1c(COc2nc(-c3ccccc3Cl)no2)cc(=O)n(C)c1=O | 0.09 K
40 | O=C1NC(=O)C(=Cc2cn(-c3ccccc3)nc2-c2cc3ccccc3oc2=O)C(=O)N1 | -0.13 K
41 | COc1cccc(N2CCCC(NC(=O)CCc3cnccn3)C2)c1 (stereo not drawn) | -0.13 K
42 | NC(=O)c1ccc(NC(=O)CSc2nnc(-c3ccc4c(c3)OCO4)o2)cc1 | 0.01 K
43 | O=C(C1=C(O)C(=O)N(CCCN2CCOCC2)C1c1ccccn1)c1ccco1 (stereo not drawn) | 0.05 K
44 | O=C1NC(=S)N/C1=C/c1ccc(-c2ccccc2F)o1 | -0.01 K
45 | CCCOc1ccc(C(=O)C2=C(O)C(=O)N(CCN3CCOCC3)C2c2ccco2)cc1 (stereo not drawn) | -0.06 K
46 | NC(=O)c1cc2c(ccc3ccccc32)o/c1=N\c1ccc(Br)cc1 | -0.16 K
47 | COc1ccc(N(C)S(=O)(=O)c2cccc(C(=O)Nc3ccc(OC)c(OC)c3)c2)cc1 | -0.04 K
48 | CN(c1ccc(OCc2ccccc2C#N)cc1)S(=O)(=O)c1ccccc1 | -0.26 K

Row | Structure (SMILES) | TSA(with NAD+) / Primary screening (TSA) / delta Tm (K)
49 | NC(=O)c1cccc(CCNC(=O)CCC(=O)c2ccc3c(c2)OCCO3)c1 | 0.09 K
50 | O=C(NC1CCOc2ccccc21)c1ccc2c(=O)n3c(nc2c1)CCC3 (stereo not drawn) | -0.11 K
51 | CC(Nc1ccnc(CC#N)c1)C(=O)N1CCCCC1C (stereo not drawn) | -0.15 K
52 | COc1ccc(NC(=O)C2=COCCO2)cc1Cc1ccccc1 | -0.01 K
53 | CCOCc1cn(CC(=O)c2ccc(CC)cc2)c(C)nc1=N | -0.03 K
54 | CC(N)CCCO (stereo not drawn) | -0.06 K
55 | O=C(NCC1CC2c3ccccc3C1c1ccccc12)Nc1cccnn1 (stereo not drawn) | -0.26 K
56 | COC(=O)c1ccc2[nH]c(CNC(=O)CSC)nc2c1 | -0.18 K
57 | CCN(CC)S(=O)(=O)c1cccc(C(=O)N[C@H](C(=O)NCC23CC4CC(CC(C4)C2)C3)C(C)C)c1 | -0.09 K
58 | CN(Cc1cnccn1)C(=O)Nc1ccc2c(c1)CCCN2C | -0.13 K
59 | Cn1c(-c2ccccc2)c(CO)c2ccccc21 | -0.02 K
60 | CC(N)CCCN (stereo not drawn) | -0.08 K
61 | C[C@H](NC(N)=O)C(=O)OCC(=O)Nc1ccc(C(N)=O)cc1 | -0.11 K
62 | NC(=O)COC(=O)C1CC(=O)N(c2ccc3c(c2)OCCO3)C1 (stereo not drawn) | -0.18 K
63 | CC(CC(O)c1ccccc1)NC(=O)c1cccc(S(=O)(=O)NCC2CCCO2)c1 (stereo not drawn) | -0.08 K
64 | CNC(=O)C1CNc2ccccc2O1 (stereo not drawn) | -0.18 K
65 | COc1ccc2cc(C3(C)NC(=O)N(CC(=O)NCC45CC6CC(CC(C6)C4)C5)C3=O)ccc2c1 (stereo not drawn) | -0.06 K
66 | CCc1nn2c(=O)cc(CNc3cc(Cl)ccc3F)nc2s1 | 0.09 K
67 | CCCn1ccnc1S(=O)(=O)CC(=O)Nc1ccc(C(N)=O)cc1 | 0.02 K
68 | NCCCCN | -0.32 K
69 | Nc1ncnc2c1cnn2-c1ccccc1 | 0.26 K
70 | Oc1ccc(Cl)cc1/C=N/c1ccccc1 | -0.05 K
71 | COc1ccc(N(C)S(=O)(=O)c2cccc(C(=O)NCCCOc3cccc(C)c3)c2)cc1 | -0.09 K
72 | CCc1cc2c(N3CCCC3)nc(C)nc2s1 | -0.72 K

Row | Structure (SMILES) | TSA(with NAD+) / Primary screening (TSA) / delta Tm (K)
73 | CCOC(=O)c1c(C)[nH]c(C)c1C(=O)COC(=O)c1cccc(S(=O)(=O)N2CC3(C)CC2CC(C)(C)C3)c1 (stereo not drawn) | 0.12 K
74 | O=C(Nc1cccc2ccccc12)N1CCC(c2ccc(O)cc2)CC1 | -0.11 K
75 | COC(C)[C@H](C)N (stereo partly drawn) | -0.09 K
76 | CCC(CC)N(c1ccc(C)c(C)c1)S(=O)(=O)c1cccc(C(N)=O)c1 | -0.01 K
77 | O=C(c1cnc(-c2ccccc2)nc1)c1cc(Br)ccc1O | 0.09 K
78 | O=C(O)Cn1nc(-c2ccccc2)ccc1=O | 0.05 K
79 | N#Cc1ccc(S(=O)(=O)N2CCN(c3ncnc4cc(Cl)ccc34)CC2)cc1 | 0.05 K
80 | COC(=O)c1c(C)[nH]c(C(=O)C(C)OC(=O)c2ccc(C(N)=O)cc2)c1C (stereo not drawn) | 0.08 K
81 | O=C(NC1CCS(=O)(=O)c2ccccc21)C1=Cc2ccccc2OC1 (stereo not drawn) | -0.05 K
82 | O=c1[nH]c(CN2CCN(c3ncnc4sc5c(c34)CCCCC5)CC2)nc2sc3c(c12)CCCC3 | -0.02 K
83 | Cc1ccc2[nH]c(SCc3cc(=O)oc4ccc5ccccc5c34)nc2c1 | 0.02 K
84 | CC(O)c1nc2ccccc2n1Cc1cnn(C)c1C(F)(F)F (stereo not drawn) | -0.11 K
85 | CC(NCC1(N(C)C)CCOCC1)c1ccc(S(C)(=O)=O)cc1 (stereo not drawn) | -0.01 K
86 | CCN(CC)C(=O)Nc1ccc(C(C)NC(=O)c2cc3c(F)cccc3[nH]2)cc1 (stereo not drawn) | 0.15 K
87 | CCCNc1nnc(S)s1 | -0.33 K
88 | CCc1cc2c(N3CCN(CCCc4nc(-c5cccs5)no4)CC3)ncnc2s1 | 0.05 K
89 | O=C(CC12CC3CC(CC(O)(C3)C1)C2)NCc1cc(-c2ccccc2)on1 | -0.01 K
90 | Cc1cc(C(=O)CN2CCCC2c2cccn2C)c(C)n1-c1ccc(S(N)(=O)=O)cc1 (stereo not drawn) | -0.01 K
91 | O=C(CC12CC3CC(CC(C3)C1)C2)NN/C=C1/C(=O)N(Cc2ccccc2)C(=O)c2ccccc21 | 0.19 K
92 | Cc1nc(C)c(CNC(=O)N2CC(C)c3ccccc32)s1 (stereo not drawn) | -0.11 K
93 | COc1ccccc1-c1noc(C(C)NC(=O)C(C)NC(C)=O)n1 (stereo not drawn) | -0.01 K
